Values of other authors as cited in PMC11213733, “Computational approaches identify a transcriptomic fingerprint of drug-induced structural cardiotoxicity” (Cell Biology and Toxicology, 2024).

Details: compound annotation; ref FDA label; cited from earlier work

CN(C)CCN(Cc1cccs1)c1ccccn1 [Methapyrilene]
Functional cardiotoxin?: Y
